The list does not hold the whole screen: it gathers tests that were run many times, whatever their T/C, doses with no T/C, and many T/C values between a quarter and a half above the control. Other doses and runs of a compound stand elsewhere. T/C is the treated group as % of the vehicle group. Some entries give survivors of the animals treated and no T/C: the source files T/C as zero there, which appears to mark a toxic dose or a test without result, not a measured value. Some survivor counts are full or nearly so, which does not show that the dose was tolerated: survival well below the control is almost never listed, so the zero probably covers shortened survival too. Survivors were counted at the toxicity check, usually on the fifth day, unless a day is given; later deaths do not show. Schedules are NCI's codes, read here as Q, the interval in days (D) or hours (H), X, the number of doses. Some entries hold several experiments; the results are listed from low to high. Additions like (4×) give the number of equal values in this list. Where survival is the endpoint, this PubChem deposit counts one and a half times the control or more as active, and values a quarter to a half above the control carry no call in these data; other NCI protocols may use other cut-offs. Some T/C values carry the count of animals alive at the toxicity check (mostly the fifth day); without a count, all were alive then.
Test system: P388 leukemia ip, CD2F1 mice, survival T/C
Assay: NCI In Vivo Anticancer Drug Screen. Data for tumor model P388 Leukemia (intraperitoneal) in CD2F1 (CDF1) mice
Conditions: T/C endpoint: median survival time, higher T/C = longer survival
[1] = dose: 12.5 mg/kg/injection, schedule: Q04DX003 (ip), vehicle: water
[2] = dose: 200.0 mg/kg/injection, schedule: Q04DX003 (ip), vehicle: saline with Tween-80
[3] = dose: 37.5 mg/kg/injection, schedule: Q01DX009 (ip), vehicle: water

COC(=O)C1CCC(/C(C#N)=C2/CCC(C(=O)OC)[N-]2)=N1.COC(=O)C1CCC(/C(C#N)=C2/CCC(C(=O)OC)[N-]2)=N1.[Cu+2] (centres undefined)
survivor count (dose: 240.0 mg/kg/injection, schedule: Q01DX005 (ip), vehicle: saline with Tween-80): 0 of 6

CSc1nc2c3ccccc3ccn2c(=N)c1C#N
survivor count (dose: 100.0 mg/kg/injection, schedule: Q04DX002 (ip), vehicle: saline): 5 of 6

CCCCOc1cccc2c1C(=O)c1c(O)c3c(c(O)c1C2=O)C[C@@](O)(C(C)=O)C[C@@H]3OC1CC(N)C(O)C(C)O1 (some centres undefined)
T/C [1]: 126 % of control [5 of 6 alive on day 9]
T/C (dose: 25.0 mg/kg/injection, schedule: Q04DX003 (ip), vehicle: water, evaluated on day 30): 141 % of control [5 of 6 alive]
T/C (dose: 25.0 mg/kg/injection, schedule: Q04DX003 (ip), vehicle: water, evaluated on day 45): 137 % of control

Cc1ccc(O)c(O)c1
T/C (dose: 50.0 mg/kg/injection, schedule: Q01DX009 (ip), vehicle: saline): 96 [5 of 6 alive], 100, 101, 104, 106, 120 % of control
T/C (dose: 100.0 mg/kg/injection, schedule: Q01DX009 (ip), vehicle: saline): 96, 99, 108, 109, 111, 115 % of control [4 of 6 alive]
T/C (dose: 200.0 mg/kg/injection, schedule: Q01DX009 (ip), vehicle: saline): 95 [4 of 6 alive], 98 [5 of 6 alive], 108, 126 [5 of 6 alive], 128, 133 % of control
survivor count (dose: 400.0 mg/kg/injection, schedule: Q01DX009 (ip), vehicle: saline): 0 of 6 (2×)
survivor count (dose: 600.0 mg/kg/injection, schedule: Q01DX009 (ip), vehicle: saline): 0 of 6

COc1ccc(C=C2C(=O)C=CC2=O)cc1O
survivor count (dose: 25.0 mg/kg/injection, schedule: Q04DX002 (ip), vehicle: saline with Tween-80): 0 of 6
survivor count (dose: 50.0 mg/kg/injection, schedule: Q04DX002 (ip), vehicle: saline with Tween-80): 0 of 6
survivor count (dose: 100.0 mg/kg/injection, schedule: Q04DX002 (ip), vehicle: saline with Tween-80): 0 of 6

C[n+]1ccc(Nc2ccc(NC(=O)c3ccc(Nc4cc[n+](C)c5ccc(N)cc45)cc3N)cc2)cc1
T/C (dose: 0.4 mg/kg/injection, schedule: Q01DX009 (ip), vehicle: saline with Tween-80): 135 % of control
T/C (dose: 0.44 mg/kg/injection, schedule: Q01DX009 (ip), vehicle: saline with Tween-80): 130 % of control
T/C (dose: 0.6 mg/kg/injection, schedule: Q01DX009 (ip), vehicle: saline with Tween-80): 136 % of control
T/C (dose: 0.66 mg/kg/injection, schedule: Q01DX009 (ip), vehicle: saline with Tween-80): 127 % of control
T/C (dose: 2.2 mg/kg/injection, schedule: Q04DX003 (ip), vehicle: saline with Tween-80): 136 % of control
T/C (dose: 3.3 mg/kg/injection, schedule: Q04DX003 (ip), vehicle: saline with Tween-80): 145 % of control

CC(NCCCSc1ccccc1)C(O)c1ccc(O)cc1 (centres undefined)
survivor count (dose: 100.0 mg/kg/injection, schedule: Q01DX009 (ip), vehicle: saline with Tween-80): 3 of 6
survivor count (dose: 200.0 mg/kg/injection, schedule: Q01DX009 (ip), vehicle: saline with Tween-80): 0 of 6

CCCCCC/C=C/C1CC(=O)OC1=O (centres undefined)
survivor count [2]: 3 of 6
survivor count (dose: 400.0 mg/kg/injection, schedule: Q04DX003 (ip), vehicle: saline with Tween-80): 0 of 6

N=[N+]=CC(=O)OCC(N)C(=O)O (centres undefined)
T/C (dose: 2.3 mg/kg/injection, schedule: Q01DX009 (ip), vehicle: water): 144 % of control
T/C (dose: 2.35 mg/kg/injection, schedule: Q01DX009 (ip), vehicle: water): 134 % of control
T/C (dose: 2.5 mg/kg/injection, schedule: Q01DX009 (ip), vehicle: saline): 128 % of control
T/C (dose: 3.24 mg/kg/injection, schedule: Q01DX009 (ip), vehicle: saline): 136 % of control
T/C (dose: 4.7 mg/kg/injection, schedule: Q01DX009 (ip), vehicle: water, evaluated on day 30): 116, 131, 141 % of control
T/C (dose: 4.7 mg/kg/injection, schedule: Q01DX009 (ip), vehicle: water, evaluated on day 45): 141 and 148 % of control
T/C (dose: 5.0 mg/kg/injection, schedule: Q01DX009 (ip), vehicle: saline): 140 and 142 % of control
T/C (dose: 5.4 mg/kg/injection, schedule: Q01DX009 (ip), vehicle: saline): 132 and 140 % of control
T/C (dose: 9.0 mg/kg/injection, schedule: Q01DX009 (ip), vehicle: saline): 138 and 141 % of control
T/C (dose: 9.4 mg/kg/injection, schedule: Q01DX009 (ip), vehicle: water, evaluated on day 30): 133, 150, 156 % of control
T/C (dose: 9.4 mg/kg/injection, schedule: Q01DX009 (ip), vehicle: water, evaluated on day 45): 146 and 157 % of control
T/C (dose: 10.0 mg/kg/injection, schedule: Q01DX009 (ip), vehicle: saline): 133 and 142 % of control
T/C [1]: 129 % of control
T/C (dose: 15.0 mg/kg/injection, schedule: Q01DX009 (ip), vehicle: saline): 144 and 148 % of control
survivor count (dose: 18.75 mg/kg/injection, schedule: Q01DX009 (ip), vehicle: water): 3 of 4 and 4 of 4
T/C (dose: 18.8 mg/kg/injection, schedule: Q01DX009 (ip), vehicle: water): 142 % of control
T/C (dose: 20.0 mg/kg/injection, schedule: Q01DX009 (ip), vehicle: saline): 143 % of control
T/C (dose: 25.0 mg/kg/injection, schedule: Q01DX009 (ip), vehicle: saline): 149 % of control
T/C [3]: 154 % of control
survivor count [3]: 3 of 4, 4 of 4 (2×), 6 of 6

CCOC(=O)C1C(=O)C(=O)OC1CC(C)C (centres undefined)
survivor count (dose: 100.0 mg/kg/injection, schedule: Q01DX005 (ip), vehicle: Klucel (hydroxypropylcellulose) (HPC)): 2 of 5
survivor count (dose: 200.0 mg/kg/injection, schedule: Q01DX005 (ip), vehicle: Klucel (hydroxypropylcellulose) (HPC)): 0 of 5

NC(=O)OCCCCOC(N)=O
survivor count (dose: 200.0 mg/kg/injection, schedule: Q01DX009 (ip), vehicle: Klucel (hydroxypropylcellulose) (HPC)): 6 of 6

Cc1c(O)c2c(c(O)c1Cc1cccc(CN)c1)C(=O)c1ccccc1C2=O
survivor count (dose: 3.13 mg/kg/injection, schedule: Q01DX009 (ip), vehicle: water): 6 of 6
survivor count (dose: 6.25 mg/kg/injection, schedule: Q01DX009 (ip), vehicle: water): 6 of 6
survivor count (dose: 12.5 mg/kg/injection, schedule: Q01DX009 (ip), vehicle: water): 6 of 6
survivor count (dose: 25.0 mg/kg/injection, schedule: Q01DX009 (ip), vehicle: water): 6 of 6
survivor count (dose: 50.0 mg/kg/injection, schedule: Q01DX009 (ip), vehicle: water): 6 of 6
survivor count (dose: 100.0 mg/kg/injection, schedule: Q01DX009 (ip), vehicle: water): 1 of 6
survivor count (dose: 200.0 mg/kg/injection, schedule: Q01DX009 (ip), vehicle: water): 0 of 6
survivor count (dose: 400.0 mg/kg/injection, schedule: Q01DX009 (ip), vehicle: water): 0 of 6

CCN(CC)CCCOC(=O)N(Cc1ccc(Cl)cc1)C1CC1
survivor count (dose: 200.0 mg/kg/injection, schedule: Q01DX009 (ip), vehicle: saline + Tween-80 + alcohol): 0 of 6

C[n+]1ccc2c([N+](=O)[O-])cccc2c1
survivor count (dose: 25.0 mg/kg/injection, schedule: Q01DX005 (ip), vehicle: saline): 0 of 5
survivor count (dose: 50.0 mg/kg/injection, schedule: Q01DX005 (ip), vehicle: saline): 0 of 5
survivor count (dose: 100.0 mg/kg/injection, schedule: Q01DX005 (ip), vehicle: saline): 0 of 5
survivor count (dose: 200.0 mg/kg/injection, schedule: Q01DX005 (ip), vehicle: saline): 0 of 5

NCC(=O)c1ccc2oc3ccccc3c2c1
survivor count (dose: 400.0 mg/kg/injection, schedule: Q01DX009 (ip), vehicle: Klucel (hydroxypropylcellulose) (HPC)): 0 of 6

O=[N+]([O-])c1ccccc1N=Nc1c(-c2ccccc2)nn(C(=S)N2CCOCC2)c1-c1ccccc1
survivor count (dose: 12.5 mg/kg/injection, schedule: Q01DX005 (ip), vehicle: saline with Tween-80): 6 of 6
survivor count (dose: 25.0 mg/kg/injection, schedule: Q01DX005 (ip), vehicle: saline with Tween-80): 6 of 6
survivor count (dose: 50.0 mg/kg/injection, schedule: Q01DX005 (ip), vehicle: saline with Tween-80): 6 of 6

CCCCC(CC)CCC(C)O (centres undefined)
survivor count [2]: 6 of 6
